In article PMC4751492:
These are yes or no findings as the source states them, for the method shown. Some entries that bind do so weakly or less than the wild type. Sequences can lack the tags named with a protein. Values belong to the binder of their own block, whether it stands above or below them.

Sequences of proteins named here, by UniProt entry; tags and fusion partners are left off.
UniProt P32120: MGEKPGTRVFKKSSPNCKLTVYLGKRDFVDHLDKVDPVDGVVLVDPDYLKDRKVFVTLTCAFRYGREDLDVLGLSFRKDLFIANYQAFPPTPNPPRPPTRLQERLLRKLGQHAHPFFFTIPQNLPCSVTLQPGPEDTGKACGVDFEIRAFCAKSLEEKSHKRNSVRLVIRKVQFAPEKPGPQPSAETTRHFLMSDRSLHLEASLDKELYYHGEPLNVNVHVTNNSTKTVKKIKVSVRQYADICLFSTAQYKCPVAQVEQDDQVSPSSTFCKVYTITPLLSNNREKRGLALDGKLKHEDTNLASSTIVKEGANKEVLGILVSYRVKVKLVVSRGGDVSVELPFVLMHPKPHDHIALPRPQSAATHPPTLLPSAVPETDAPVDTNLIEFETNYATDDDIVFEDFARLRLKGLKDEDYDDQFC

Key:
[1] = target: T1, MBP-T1A (first 25 residues of arrestin-3 fused to MBP); assay: pull-down; MBP fusions (10-30 μg) immobilised on amylose resin, 1 h 4 °C; purified kinase (10 μg in 20 mM Tris/150 mM NaCl) added 2 h 4 °C; washed with 50 mM HEPES-Na pH 7.3, 150 mM NaCl; eluted with 50 mM maltose; SDS-PAGE and Western blot; both purified; settings: remark: other sources report otherwise
T1 chain: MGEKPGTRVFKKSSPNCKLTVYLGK

[2] = target: MBP-arrestin-3 (full-length arrestin-3 fused to MBP) (UniProt P32120); assay: as above

binding [1]: binds
B1: JNK3α2, P53779 1-464 (enzyme)
chain: MSLHFLYYCSEPTLDVKIAFCQGFDKQVDVSYIAKHYNMSKSKVDNQFYSVEVGDSTFTVLKRYQNLKPIGSGAQGIVCAAYDAVLDRNVAIKKLSRPFQNQTHAKRAYRELVLMKCVNHKNIISLLNVFTPQKTLEEFQDVYLVMELMDANLCQVIQMELDHERMSYLLYQMLCGIKHLHSAGIIHRDLKPSNIVVKSDCTLKILDFGLARTAGTSFMMTPYVVTRYYRAPEVILGMGYKENVDIWSVGCIMGEMVRHKILFPGRDYIDQWNKVIEQLGTPCPEFMKKLQPTVRNYVENRPKYAGLTFPKLFPDSLFPADSEHNKLKASQARDLLSKMLVIDPAKRISVDDALQHPYINVWYDPAEVEAPPPQIYDKQLDEREHTIEEWKELIYKEVMNSEEKTKNGVVKGQPSPSGAAVNSSESLPPSSSVNDISSMSTDQTLASDTDSSLEASAGPLGCCR

binding [1]: binds
B2: GST-MKK4, P45985 1-399 (enzyme)
chain: MAAPSPSGGGGSGGGSGSGTPGPVGSPAPGHPAVSSMQGKRKALKLNFANPPFKSTARFTLNPNPTGVQNPHIERLRTHSIESSGKLKISPEQHWDFTAEDLKDLGEIGRGAYGSVNKMVHKPSGQIMAVKRIRSTVDEKEQKQLLMDLDVVMRSSDCPYIVQFYGALFREGDCWICMELMSTSFDKFYKYVYSVLDDVIPEEILGKITLATVKALNHLKENLKIIHRDIKPSNILLDRSGNIKLCDFGISGQLVDSIAKTRDAGCRPYMAPERIDPSASRQGYDVRSDVWSLGITLYELATGRFPYPKWNSVFDQLTQVVKGDPPQLSNSEEREFSPSFINFVNLCLTKDESKRPKYKELLKHPFILMYEERAVEVACYVCKILDQMPATPSSPMYVD

binding [2]: binds
B3: GST-MKK4 (enzyme, UniProt P45985 1-399)
chain: B2 chain
